Experimental data from PMC7606512.
These are yes or no findings as the source states them, for the method shown. In cells and extracts the contact can be indirect. Some results given as binding are weak or reduced against the parent protein; the word gives no strength. One block for each substance: values may come before it.

Sequences of proteins named here, by UniProt entry; tags and fusion partners are left off. Residues count along the entry.
UniProt Q9Y4L5, residues 1-200: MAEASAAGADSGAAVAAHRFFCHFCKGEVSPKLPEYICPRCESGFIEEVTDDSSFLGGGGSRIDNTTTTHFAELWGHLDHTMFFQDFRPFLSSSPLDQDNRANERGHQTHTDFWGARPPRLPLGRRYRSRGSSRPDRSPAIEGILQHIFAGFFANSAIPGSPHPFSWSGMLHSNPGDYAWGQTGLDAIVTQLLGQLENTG
UniProt Q7Z434: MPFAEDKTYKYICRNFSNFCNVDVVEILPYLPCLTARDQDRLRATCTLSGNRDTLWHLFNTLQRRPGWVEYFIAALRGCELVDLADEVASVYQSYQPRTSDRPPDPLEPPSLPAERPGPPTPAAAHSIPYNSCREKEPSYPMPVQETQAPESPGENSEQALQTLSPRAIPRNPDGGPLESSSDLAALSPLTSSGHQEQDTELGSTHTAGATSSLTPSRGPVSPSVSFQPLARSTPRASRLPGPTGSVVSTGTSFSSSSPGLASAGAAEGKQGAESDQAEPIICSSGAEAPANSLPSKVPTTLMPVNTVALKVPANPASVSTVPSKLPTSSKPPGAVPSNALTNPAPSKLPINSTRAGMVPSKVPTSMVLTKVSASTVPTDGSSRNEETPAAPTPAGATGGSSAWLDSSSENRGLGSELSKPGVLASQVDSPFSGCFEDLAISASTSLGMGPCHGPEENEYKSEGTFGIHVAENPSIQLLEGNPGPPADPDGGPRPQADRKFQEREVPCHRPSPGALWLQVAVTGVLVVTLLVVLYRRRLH
UniProt Q9D0C1: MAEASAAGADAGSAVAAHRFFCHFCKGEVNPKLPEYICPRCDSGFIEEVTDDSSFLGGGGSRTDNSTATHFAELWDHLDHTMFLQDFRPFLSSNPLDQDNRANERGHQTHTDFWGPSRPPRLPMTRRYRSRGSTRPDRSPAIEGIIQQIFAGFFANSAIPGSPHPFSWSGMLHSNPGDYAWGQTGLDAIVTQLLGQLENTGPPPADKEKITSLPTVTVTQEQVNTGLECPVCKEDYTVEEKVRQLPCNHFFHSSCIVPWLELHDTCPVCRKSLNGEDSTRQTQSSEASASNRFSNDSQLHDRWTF

What was measured:
[1] = target: GST-RNF115 (1–200aa) (human) (UniProt Q9Y4L5); experiment: pull-down; purified GST or GST-RNF115 (1–200 aa) (5 μg) incubated with in vitro translated FLAG-MAVS at 4 °C overnight, glutathione agarose 2 h in PBS with protease inhibitors; immunoblot; only the target purified
[2] = target: MAVS (transfected in HEK293, tag FLAG or HA not told) (UniProt Q7Z434); experiment: co-IP; HEK293 cells transiently transfected; lysis buffer 20 mM Tris–HCl pH 7.4–7.5, 150 mM NaCl, 1 mM EDTA, 1% Nonidet P-40; antibody (anti-FLAG) and protein G agarose 2–4 h; immunoblot
[3] = target: T1, MAVS, endogenous in mouse BMDCs and MLFs (mouse (endogenous in BMDCs and MLFs)) (UniProt Q8VCF0); experiment: co-IP
T1 sequence: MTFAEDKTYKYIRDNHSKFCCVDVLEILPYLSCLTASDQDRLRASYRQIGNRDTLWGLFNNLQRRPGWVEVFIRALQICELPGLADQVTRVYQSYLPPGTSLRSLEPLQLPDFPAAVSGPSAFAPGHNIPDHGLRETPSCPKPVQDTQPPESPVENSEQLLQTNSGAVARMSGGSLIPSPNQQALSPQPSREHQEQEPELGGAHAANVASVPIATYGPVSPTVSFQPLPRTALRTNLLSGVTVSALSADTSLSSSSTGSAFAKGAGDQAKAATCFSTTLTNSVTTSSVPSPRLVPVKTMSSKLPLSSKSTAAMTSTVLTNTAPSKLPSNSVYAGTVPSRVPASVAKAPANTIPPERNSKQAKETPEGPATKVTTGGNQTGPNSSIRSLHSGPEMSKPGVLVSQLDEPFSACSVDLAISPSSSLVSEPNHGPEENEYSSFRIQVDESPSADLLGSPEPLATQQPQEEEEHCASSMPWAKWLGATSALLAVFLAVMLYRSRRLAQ

[4] = target: T2, MITA, endogenous in mouse MLFs (mouse (endogenous in MLFs)) (UniProt Q3TBT3); experiment: co-IP; endogenous proteins; THP-1 cells (also stably shCon or shRNF115#2) and MLFs (Rnf115+/+ and Rnf115−/−) infected with HSV-1; immunoprecipitated with anti-MITA (Fig. 7f); immunoblot
T2 sequence: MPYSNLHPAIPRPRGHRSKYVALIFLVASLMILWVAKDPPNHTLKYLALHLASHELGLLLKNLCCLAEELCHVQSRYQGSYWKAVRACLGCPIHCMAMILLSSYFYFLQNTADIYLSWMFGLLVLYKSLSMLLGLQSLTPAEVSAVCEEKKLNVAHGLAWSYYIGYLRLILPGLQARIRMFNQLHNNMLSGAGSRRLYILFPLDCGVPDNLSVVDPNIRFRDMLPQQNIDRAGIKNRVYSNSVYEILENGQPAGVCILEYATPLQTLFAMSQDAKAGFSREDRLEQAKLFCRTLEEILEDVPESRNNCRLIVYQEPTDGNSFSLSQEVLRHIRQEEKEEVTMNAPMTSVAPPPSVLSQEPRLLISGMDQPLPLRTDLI

[5] = target: T1, MAVS, endogenous in mouse BMDCs and MLFs (mouse (endogenous in BMDCs and MLFs)); experiment: proximity ligation

- binding [1]: binds
Substance: FLAG-MAVS, in vitro translated (from UniProt Q7Z434 1-540)

- binding [2]: binds
Substance: RNF115 N-terminal domain (aa 1–200), transfected in HEK293 (from UniProt Q9Y4L5 1-200) (domain or fragment)

- binding [3]: binds
- binding [4]: binds
- binding [5]: binds
Substance: RNF115, endogenous in mouse BMDCs and MLFs (from UniProt Q9D0C1 1-305) (enzyme)
